Data as given in US11484517B2, “Combination comprising a PPAR agonist such as elafibranor and an acetyl-CoA carboxylase (ACC) inhibitor” (GENFIT, priority 2017, dated 2022).
At least one structure is not confirmed: it was looked up by name or label, or the drawing left a doubt.

Columns and labels:
[1] = system: rats fed a CDAA+1% cholesterol diet; test: chronic CDAA+1% cholesterol fibrosing NASH-model of rats (12 weeks); type: in vivo, Wistar rats; details: CDAA/chol diet rats
Procedure: Evaluation of Elafibranor, OCA and the combination Elafibranor+OCA in a chronic CDAA+1% cholesterol model (12 weeks).
The preventive effects of Elafibranor alone, OCA alone and the combination of both were assessed in a fibrosing NASH-model of rats fed a CDAA+1% cholesterol diet. 150-175 g male Wistar rats were fed a control (CSAA) diet, CDAA+1% cholesterol diet, or CDAA+1% cholesterol diet supplemented with Elafibranor 1, 3 and 10 mg/kg/day, OCA 10 and 30 mg/kg/day or combined drugs (Elafibranor 1, 3 and 10 mg/kg/day combined to OCA 10 mg/kg/day) for 12 weeks.
The body weight and the food intake were monitored twice per week. On the last day of treatment, rats were sacrificed after a 6 h fasting period. The liver was rapidly excised for biochemical and histological studies.
A technician blinded to the source of each liver specimen performed histological examinations. Virtual slides were generated using the Pannoramic 250 scanner from 3D Histech. […] Briefly, steatosis, lobular inflammation and hepatocytes ballooning were scored. […]
Using Quant Center software (3D Histech, including Pattern Quant and Histo Quant modules), collagen-stained areas were quantified. […] The fibrosis area was then expressed as the percentage of the collagen surface to the whole tissue per animal.
The hepatic collagen content was determined using the appropriate QuickZyme kit (Total collagen assay, cat # QZB-totcol2). […]
Complete hydrolysis of tissue samples in 6M HCl at 95° C. is required before dosing the hydroxyproline. The assay results in the generation of a chromogen with a maximum absorbance at 570 nm. Results are expressed as mg of collagen/g of liver. […]
Quantitative PCR was then carried out using the CFX96 TOUCH Real-Time PCR Detection System (Biorad). […]
Expression levels were normalized using the expression of RPLP0 gene as a housekeeping gene of reference in samples. […] Expression levels were determined using the standard curve equation for both the housekeeping gene and the target gene (taking into account the specific PCR efficiency of each target gene).

TGFβ1-induced hHSC = test: α-SMA ELISA in TGFβ1-induced hHSC; type: cell-based, human; details: TGFβ1-activated hHSC, all doses
Procedure: (§1) The human primary hepatic stellate cells (hHSC) (Innoprot) were cultured under standard conditions, as described above.
The level of α-SMA was measured using a Sandwich ELISA. Briefly, the wells of an ELISA plate were first coated with the capture antibody (mouse monoclonal anti-ACTA2, Abnova) at 4° C. overnight. […] The cell lysates were transferred into the wells for binding to the capture antibody for a period of 2 h at room temperature. After the washing procedure, the detection antibody (biotinylated mouse monoclonal anti-ACTA2, Abnova) was added for 2 hours at room temperature followed by 3 washes. […] Upon oxidation, TMB forms a water-soluble blue reaction product that becomes yellow with addition of sulfuric acid (solution stop), enabling accurate measurement of the intensity at 450 nm using a spectrophotometer. The developed color is directly proportional to the amount of α-SMA present in the lysate.
as §1

Row | Structure (SMILES) | lobular inflammation [1] | hepatocyte damage, as judged by ballooning ([1]; doses used in the study) | fibrosis development, in words ([1]; administration alone) | antifibrotic effect (α-SMA), single agent, in words (TGFβ1-induced hHSC)
1 | CC[C@H]1[C@@H](O)[C@@H]2[C@H](CC[C@]3(C)[C@@H]([C@H](C)CCC(=O)O)CC[C@@H]23)[C@@]2(C)CC[C@@H](O)C[C@@H]12 [OCA, obeticholic acid] | to a lesser extent | partial ballooning attenuation | very significant attenuation | 
2 | CC(C)(Oc1ccc(CCNC(=O)c2ccc(Cl)cc2)cc1)C(=O)O [Bezafibrate] |  |  |  | weak antifibrotic profile
